The supplement of paper PMC12819154, “High-throughput peptide-centric local stability assay extends protein–ligand identification to membrane proteins, tissues and bacteria” (Nature Structural & Molecular Biology, 2025)
The list shows a part of the results. Most values lie at the level of the controls, where differences are scatter.

By UniProt entry, the sequences of proteins in these tests, tags left out. Where a name states a change or a piece, a line headed by the entry shows the natural chain unless it says otherwise.
UniProt P97434: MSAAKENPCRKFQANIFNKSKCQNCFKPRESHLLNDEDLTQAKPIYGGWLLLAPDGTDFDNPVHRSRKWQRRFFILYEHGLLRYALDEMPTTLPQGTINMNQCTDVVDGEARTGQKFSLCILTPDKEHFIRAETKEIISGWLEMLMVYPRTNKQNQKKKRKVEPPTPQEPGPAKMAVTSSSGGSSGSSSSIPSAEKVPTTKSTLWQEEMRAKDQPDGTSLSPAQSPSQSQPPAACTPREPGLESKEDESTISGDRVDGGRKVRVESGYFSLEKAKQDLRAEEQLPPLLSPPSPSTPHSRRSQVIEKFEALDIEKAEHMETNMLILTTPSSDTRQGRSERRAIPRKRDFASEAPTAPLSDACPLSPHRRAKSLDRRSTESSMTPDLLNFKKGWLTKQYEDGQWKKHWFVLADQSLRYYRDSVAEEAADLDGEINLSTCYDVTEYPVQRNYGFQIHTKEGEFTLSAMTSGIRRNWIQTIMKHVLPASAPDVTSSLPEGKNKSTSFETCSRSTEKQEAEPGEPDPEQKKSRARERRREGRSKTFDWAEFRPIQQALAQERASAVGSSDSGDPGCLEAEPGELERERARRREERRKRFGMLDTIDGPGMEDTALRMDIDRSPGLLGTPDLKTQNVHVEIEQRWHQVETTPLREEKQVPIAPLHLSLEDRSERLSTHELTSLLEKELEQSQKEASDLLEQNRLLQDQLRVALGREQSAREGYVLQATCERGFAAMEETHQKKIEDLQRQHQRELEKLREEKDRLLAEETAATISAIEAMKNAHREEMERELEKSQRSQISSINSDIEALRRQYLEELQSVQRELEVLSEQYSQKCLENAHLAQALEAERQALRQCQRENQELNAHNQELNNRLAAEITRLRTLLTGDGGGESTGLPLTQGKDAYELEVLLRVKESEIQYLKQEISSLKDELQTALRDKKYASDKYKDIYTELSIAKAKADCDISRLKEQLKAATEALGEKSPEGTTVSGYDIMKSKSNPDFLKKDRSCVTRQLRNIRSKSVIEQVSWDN
UniProt P70691: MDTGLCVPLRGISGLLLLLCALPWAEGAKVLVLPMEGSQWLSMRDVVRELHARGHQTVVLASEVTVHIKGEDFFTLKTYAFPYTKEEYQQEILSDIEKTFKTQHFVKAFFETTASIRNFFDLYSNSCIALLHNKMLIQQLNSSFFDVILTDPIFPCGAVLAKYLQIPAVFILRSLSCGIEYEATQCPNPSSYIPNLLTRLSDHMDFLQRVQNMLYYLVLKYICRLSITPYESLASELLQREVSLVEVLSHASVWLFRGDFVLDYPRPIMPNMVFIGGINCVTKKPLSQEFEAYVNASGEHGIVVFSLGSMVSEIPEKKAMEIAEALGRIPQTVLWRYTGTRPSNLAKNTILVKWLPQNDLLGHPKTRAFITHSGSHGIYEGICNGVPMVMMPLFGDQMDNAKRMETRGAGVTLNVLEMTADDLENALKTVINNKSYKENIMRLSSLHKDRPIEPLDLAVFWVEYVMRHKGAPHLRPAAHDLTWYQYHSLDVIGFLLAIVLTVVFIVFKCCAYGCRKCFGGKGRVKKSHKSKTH
UniProt P83741: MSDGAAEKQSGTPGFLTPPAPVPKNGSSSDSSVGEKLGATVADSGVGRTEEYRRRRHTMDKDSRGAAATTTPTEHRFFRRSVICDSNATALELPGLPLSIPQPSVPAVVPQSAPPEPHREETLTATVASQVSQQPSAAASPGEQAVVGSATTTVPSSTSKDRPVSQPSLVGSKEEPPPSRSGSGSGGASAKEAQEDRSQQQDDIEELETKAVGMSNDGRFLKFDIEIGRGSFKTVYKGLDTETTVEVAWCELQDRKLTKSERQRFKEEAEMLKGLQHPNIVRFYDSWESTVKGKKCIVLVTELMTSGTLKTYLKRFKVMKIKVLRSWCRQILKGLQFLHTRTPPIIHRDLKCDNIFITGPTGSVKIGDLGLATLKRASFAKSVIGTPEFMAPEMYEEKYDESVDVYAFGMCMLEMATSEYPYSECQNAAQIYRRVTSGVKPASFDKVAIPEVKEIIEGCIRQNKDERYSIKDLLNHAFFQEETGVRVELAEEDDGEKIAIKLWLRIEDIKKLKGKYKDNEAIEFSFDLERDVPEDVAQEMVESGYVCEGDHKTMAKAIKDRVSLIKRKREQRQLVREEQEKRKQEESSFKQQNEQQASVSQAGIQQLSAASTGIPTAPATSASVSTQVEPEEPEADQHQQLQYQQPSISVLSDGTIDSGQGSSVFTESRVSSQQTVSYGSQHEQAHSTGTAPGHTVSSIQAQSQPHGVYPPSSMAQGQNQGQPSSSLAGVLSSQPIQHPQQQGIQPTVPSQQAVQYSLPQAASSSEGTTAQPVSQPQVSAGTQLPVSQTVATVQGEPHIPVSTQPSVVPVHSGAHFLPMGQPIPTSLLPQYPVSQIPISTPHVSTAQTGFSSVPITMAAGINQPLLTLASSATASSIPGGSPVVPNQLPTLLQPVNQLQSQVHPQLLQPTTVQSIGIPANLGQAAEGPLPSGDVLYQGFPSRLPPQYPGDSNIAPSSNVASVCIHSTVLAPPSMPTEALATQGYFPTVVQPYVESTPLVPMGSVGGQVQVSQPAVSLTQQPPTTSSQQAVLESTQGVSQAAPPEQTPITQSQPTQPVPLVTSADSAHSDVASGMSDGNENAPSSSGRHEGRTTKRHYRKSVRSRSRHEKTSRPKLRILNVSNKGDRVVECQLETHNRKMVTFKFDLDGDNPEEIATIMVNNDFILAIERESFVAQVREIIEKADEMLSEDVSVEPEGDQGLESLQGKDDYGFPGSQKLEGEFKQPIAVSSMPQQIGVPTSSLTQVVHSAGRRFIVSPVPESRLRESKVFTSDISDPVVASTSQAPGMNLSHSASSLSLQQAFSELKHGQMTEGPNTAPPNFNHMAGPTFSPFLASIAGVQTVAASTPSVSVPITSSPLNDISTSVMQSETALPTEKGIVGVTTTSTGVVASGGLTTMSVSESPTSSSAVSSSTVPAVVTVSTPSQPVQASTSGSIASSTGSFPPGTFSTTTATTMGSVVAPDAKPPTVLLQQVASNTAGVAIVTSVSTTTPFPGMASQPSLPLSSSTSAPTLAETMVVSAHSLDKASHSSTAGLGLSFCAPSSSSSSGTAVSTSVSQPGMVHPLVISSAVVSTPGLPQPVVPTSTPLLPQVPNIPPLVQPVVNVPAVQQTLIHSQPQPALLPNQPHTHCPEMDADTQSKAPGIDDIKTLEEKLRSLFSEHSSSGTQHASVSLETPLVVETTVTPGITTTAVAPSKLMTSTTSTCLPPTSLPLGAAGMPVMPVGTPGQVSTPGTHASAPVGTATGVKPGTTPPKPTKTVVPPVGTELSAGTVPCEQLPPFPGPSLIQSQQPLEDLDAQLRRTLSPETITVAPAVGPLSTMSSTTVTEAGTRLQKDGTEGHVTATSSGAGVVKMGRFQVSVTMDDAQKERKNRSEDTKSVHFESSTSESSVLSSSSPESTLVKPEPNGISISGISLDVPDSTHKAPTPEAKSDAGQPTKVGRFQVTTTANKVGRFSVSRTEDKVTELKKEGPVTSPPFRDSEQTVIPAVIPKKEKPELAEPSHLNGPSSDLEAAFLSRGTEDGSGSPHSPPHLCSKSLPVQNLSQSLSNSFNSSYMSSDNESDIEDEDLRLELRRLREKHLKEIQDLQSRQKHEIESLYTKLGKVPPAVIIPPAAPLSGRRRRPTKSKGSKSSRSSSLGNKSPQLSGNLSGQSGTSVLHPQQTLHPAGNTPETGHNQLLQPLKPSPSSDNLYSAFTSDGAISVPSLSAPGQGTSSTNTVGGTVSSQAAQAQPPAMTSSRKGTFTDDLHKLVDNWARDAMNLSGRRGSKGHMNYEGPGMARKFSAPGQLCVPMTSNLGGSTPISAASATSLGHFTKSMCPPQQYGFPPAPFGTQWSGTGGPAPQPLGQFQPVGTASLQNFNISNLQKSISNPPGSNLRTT
UniProt P97770: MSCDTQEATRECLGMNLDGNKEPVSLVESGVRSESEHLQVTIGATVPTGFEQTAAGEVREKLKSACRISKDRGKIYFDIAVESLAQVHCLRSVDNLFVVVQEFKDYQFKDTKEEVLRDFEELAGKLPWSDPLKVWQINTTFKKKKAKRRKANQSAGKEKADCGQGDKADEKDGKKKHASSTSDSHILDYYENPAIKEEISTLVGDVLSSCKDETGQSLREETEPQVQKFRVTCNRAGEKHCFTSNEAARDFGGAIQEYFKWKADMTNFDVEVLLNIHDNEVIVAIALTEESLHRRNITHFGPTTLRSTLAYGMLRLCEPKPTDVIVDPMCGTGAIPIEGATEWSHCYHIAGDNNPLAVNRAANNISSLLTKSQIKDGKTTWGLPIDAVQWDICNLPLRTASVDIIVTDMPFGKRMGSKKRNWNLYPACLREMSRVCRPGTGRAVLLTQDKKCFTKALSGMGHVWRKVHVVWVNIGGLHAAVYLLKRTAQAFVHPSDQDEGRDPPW
UniProt P61148, whole entry: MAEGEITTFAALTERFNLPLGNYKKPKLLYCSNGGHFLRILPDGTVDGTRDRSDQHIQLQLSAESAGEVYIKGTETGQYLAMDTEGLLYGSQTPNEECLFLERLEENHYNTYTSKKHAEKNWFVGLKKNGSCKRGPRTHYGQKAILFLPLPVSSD
UniProt P63073, whole entry: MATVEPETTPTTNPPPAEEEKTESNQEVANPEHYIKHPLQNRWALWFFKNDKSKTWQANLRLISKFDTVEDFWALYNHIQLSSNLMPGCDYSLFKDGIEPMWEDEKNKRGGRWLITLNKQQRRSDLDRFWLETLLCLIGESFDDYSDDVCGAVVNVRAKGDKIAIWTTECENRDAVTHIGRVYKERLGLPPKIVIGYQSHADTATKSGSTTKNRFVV
UniProt P58137: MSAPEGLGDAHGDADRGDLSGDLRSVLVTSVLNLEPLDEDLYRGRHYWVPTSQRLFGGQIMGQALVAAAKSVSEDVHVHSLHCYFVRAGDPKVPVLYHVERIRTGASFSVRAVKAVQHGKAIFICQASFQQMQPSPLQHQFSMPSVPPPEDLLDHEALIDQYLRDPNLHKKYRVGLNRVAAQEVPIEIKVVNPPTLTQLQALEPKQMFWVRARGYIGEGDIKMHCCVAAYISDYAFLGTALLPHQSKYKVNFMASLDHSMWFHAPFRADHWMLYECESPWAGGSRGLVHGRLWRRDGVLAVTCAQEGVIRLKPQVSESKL
UniProt P70194: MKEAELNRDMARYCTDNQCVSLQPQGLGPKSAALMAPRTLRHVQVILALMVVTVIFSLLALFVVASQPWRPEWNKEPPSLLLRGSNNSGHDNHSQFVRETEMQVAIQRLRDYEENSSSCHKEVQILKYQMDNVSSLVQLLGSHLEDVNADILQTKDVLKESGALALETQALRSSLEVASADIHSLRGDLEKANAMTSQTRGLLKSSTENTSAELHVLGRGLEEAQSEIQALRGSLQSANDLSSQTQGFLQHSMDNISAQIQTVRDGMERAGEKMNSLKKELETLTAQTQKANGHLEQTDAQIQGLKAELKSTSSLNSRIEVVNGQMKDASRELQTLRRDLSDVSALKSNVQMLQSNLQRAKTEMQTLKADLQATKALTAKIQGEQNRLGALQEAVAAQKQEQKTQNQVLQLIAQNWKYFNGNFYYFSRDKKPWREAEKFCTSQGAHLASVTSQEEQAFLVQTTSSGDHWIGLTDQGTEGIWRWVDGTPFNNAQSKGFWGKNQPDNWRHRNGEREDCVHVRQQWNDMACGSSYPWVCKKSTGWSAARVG
UniProt P63028: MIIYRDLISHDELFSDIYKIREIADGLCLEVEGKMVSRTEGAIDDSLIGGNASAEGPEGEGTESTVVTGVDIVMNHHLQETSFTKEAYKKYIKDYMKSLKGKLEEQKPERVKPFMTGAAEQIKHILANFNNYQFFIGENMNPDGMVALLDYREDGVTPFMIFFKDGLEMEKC
UniProt P70297: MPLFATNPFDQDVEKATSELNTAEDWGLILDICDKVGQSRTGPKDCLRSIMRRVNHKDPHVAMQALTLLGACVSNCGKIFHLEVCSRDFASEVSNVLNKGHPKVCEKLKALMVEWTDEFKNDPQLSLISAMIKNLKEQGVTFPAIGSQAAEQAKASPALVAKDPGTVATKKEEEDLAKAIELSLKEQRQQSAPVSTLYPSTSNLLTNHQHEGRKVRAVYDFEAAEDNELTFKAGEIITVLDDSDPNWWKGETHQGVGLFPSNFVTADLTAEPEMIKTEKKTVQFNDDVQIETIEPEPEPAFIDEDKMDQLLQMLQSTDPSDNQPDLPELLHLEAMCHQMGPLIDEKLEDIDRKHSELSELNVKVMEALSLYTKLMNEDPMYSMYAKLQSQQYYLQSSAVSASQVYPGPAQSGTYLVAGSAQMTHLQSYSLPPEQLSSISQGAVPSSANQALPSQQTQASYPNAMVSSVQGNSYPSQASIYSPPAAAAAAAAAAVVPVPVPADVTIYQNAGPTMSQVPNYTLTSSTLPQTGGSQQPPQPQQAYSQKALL
UniProt P62869, whole entry: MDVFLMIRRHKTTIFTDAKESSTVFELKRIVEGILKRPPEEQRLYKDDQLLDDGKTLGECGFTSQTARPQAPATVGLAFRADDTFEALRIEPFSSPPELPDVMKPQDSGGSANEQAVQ

The targets below were run with CN[C@@H]1C[C@H]2O[C@@](C)([C@@H]1OC)n1c3ccccc3c3c4c(c5c6ccccc6n2c5c31)C(=O)NC4 [staurosporine] (assay: log2 fold change of pooled soluble protein (PISA), ligand vs vehicle (log2 ratio); higher = more thermally stabilized). Conditions: ligand concentration: 20 uM; assay format: PISA pool 52.9/55.5/58.6 C.

Target | log2 fold change of pooled soluble protein
UniProt P59235 | 0.0436
UniProt P97287 | 0.414
UniProt P97434 | -0.176
UniProt P70122 | 0.00792
UniProt P70290 | -0.0796
UniProt P70333 | 0.105
UniProt P70691 | 0.269
UniProt P62748 | 0.285
UniProt P81269 | -0.115
UniProt P83741 | -0.0638
UniProt P97785 | -0.0855
UniProt P97328 | -0.00799
UniProt P58774 | -0.257
UniProt P61022 | 0.0506
UniProt P97770 | 0.207
UniProt P61148 | -0.0085
UniProt P70365 | -0.0198
UniProt P63073 | -0.0521
UniProt P97371 | 0.0755

Target | log2 fold change of pooled soluble protein
UniProt P70303 | 0.0619
UniProt P58269 | -0.149
UniProt P58137 | 0.0313
UniProt P61219 | 0.0927
UniProt P80314 | 0.0181
UniProt P70194 | -0.208
UniProt P56657 | 0.139
UniProt P63028 | -0.176
P86048;Q6ZWV3 | 0.0921
UniProt P97379 | 0.051
UniProt P70207 | -0.158
UniProt P97449 | 0.0659
UniProt P62342 | -0.0414
UniProt P70288 | 0.0845
UniProt P70297 | -0.0577
UniProt P70398 | -0.0659
UniProt P82343 | -0.00304
UniProt P62869 | 0.125

Reformatted in markdown: entries from further up.

| Target | log2 fold change of pooled soluble protein |
| --- | --- |
| UniProt P58137 | 0.0313 |
| UniProt P61219 | 0.0927 |
| UniProt P80314 | 0.0181 |
